Experimental data reported in article doi:10.1101/2020.01.08.899328.
These are yes or no findings as the source states them, for the method shown. In cells and extracts the contact can be indirect. A yes stands for co-enrichment or nearness to the bait. Other partners may have been found.

Amino acid sequences for entries named in this document (tags omitted).
UniProt P60122: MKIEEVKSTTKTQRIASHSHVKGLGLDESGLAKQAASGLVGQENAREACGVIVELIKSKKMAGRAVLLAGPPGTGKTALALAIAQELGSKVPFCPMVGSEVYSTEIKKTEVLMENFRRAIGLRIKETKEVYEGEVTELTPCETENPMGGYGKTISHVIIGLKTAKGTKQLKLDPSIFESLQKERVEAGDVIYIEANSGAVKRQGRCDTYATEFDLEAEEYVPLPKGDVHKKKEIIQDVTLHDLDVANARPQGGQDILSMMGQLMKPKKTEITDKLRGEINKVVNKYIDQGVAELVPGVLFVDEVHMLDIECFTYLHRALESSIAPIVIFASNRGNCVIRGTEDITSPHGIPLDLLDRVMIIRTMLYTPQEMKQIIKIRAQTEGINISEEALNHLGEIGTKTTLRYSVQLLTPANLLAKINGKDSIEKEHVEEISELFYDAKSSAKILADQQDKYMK
UniProt Q9DBR0: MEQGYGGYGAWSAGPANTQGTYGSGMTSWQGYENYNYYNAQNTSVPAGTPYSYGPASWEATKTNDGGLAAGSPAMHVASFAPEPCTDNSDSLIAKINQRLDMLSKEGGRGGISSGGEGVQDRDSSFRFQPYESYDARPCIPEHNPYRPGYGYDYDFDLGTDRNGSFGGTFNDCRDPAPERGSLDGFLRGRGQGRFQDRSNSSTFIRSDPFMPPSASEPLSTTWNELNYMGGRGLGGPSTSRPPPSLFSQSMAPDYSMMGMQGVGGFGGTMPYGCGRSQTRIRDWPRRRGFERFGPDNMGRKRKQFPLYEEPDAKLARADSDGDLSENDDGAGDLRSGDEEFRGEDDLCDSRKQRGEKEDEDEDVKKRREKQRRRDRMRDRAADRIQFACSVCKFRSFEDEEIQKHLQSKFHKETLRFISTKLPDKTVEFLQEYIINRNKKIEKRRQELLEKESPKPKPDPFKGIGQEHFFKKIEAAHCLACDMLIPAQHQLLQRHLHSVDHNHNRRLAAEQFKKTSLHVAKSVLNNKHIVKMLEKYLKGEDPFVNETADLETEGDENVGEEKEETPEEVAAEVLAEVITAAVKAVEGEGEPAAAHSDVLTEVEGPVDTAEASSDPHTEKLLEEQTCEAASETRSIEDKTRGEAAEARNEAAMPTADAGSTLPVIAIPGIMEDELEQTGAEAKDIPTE
UniProt P97496: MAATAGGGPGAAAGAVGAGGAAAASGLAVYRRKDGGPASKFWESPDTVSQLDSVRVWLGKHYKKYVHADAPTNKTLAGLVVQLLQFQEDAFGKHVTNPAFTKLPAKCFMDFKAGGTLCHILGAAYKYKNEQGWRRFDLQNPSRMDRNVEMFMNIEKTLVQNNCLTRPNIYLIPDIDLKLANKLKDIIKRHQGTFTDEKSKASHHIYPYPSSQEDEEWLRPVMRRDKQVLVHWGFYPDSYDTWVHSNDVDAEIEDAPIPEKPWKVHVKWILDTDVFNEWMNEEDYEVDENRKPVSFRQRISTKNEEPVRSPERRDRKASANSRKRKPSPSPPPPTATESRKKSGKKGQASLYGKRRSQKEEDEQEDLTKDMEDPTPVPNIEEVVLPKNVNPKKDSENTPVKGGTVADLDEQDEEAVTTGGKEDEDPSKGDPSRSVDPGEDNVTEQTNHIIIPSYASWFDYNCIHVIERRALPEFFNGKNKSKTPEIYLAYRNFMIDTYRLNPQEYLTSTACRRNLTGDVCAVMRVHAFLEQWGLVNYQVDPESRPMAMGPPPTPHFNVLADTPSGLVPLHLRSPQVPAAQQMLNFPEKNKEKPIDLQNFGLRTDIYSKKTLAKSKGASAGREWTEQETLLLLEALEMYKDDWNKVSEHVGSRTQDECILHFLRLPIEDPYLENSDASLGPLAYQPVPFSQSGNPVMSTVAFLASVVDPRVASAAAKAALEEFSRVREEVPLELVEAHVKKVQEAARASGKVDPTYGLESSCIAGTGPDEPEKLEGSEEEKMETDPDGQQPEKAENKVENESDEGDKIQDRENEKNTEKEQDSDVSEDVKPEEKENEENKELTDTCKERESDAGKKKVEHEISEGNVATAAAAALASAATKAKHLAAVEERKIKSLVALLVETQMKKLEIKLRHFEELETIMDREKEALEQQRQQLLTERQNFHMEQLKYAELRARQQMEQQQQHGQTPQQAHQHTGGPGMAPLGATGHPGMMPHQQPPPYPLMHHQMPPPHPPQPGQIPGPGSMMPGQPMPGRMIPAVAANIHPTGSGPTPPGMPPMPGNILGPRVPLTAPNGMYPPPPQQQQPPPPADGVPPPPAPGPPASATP
UniProt Q3TKT4: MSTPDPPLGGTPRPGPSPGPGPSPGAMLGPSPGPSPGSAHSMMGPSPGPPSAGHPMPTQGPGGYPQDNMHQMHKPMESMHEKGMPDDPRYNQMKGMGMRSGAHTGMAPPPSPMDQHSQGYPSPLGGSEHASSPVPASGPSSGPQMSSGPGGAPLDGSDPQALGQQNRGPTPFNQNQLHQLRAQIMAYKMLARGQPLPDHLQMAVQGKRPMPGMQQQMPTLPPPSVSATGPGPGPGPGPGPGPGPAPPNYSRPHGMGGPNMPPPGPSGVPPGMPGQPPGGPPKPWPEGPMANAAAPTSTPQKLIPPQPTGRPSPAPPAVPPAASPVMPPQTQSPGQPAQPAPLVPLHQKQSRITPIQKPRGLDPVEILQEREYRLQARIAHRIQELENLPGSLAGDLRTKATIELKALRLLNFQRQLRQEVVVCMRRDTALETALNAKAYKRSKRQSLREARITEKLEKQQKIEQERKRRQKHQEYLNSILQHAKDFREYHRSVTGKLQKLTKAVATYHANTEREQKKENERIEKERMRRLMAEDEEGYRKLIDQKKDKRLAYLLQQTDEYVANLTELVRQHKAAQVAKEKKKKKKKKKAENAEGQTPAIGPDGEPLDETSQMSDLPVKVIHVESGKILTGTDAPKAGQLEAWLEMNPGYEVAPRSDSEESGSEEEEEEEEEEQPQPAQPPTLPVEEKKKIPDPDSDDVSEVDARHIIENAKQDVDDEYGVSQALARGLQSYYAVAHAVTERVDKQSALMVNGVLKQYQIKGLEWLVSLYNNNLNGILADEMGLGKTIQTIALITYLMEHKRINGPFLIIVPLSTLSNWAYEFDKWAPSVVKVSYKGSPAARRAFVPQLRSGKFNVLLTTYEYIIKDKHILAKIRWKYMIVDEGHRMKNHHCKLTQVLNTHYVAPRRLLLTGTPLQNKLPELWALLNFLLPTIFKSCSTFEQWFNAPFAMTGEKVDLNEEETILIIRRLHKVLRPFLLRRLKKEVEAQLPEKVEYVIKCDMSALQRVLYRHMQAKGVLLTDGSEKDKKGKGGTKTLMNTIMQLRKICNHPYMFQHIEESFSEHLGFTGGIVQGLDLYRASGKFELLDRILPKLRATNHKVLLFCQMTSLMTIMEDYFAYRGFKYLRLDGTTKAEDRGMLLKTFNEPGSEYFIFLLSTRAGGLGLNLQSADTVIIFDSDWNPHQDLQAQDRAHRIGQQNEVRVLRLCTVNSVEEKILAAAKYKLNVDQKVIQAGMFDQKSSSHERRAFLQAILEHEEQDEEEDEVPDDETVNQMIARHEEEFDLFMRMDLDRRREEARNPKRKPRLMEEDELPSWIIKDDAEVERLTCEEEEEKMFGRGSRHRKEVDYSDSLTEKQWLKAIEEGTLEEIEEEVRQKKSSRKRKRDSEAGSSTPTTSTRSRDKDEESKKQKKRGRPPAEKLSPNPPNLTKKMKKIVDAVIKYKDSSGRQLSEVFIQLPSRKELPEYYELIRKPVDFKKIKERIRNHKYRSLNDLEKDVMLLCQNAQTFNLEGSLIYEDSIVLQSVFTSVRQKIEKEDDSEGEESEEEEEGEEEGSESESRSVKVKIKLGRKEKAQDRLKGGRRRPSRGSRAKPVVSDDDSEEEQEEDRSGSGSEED
UniProt Q99J95: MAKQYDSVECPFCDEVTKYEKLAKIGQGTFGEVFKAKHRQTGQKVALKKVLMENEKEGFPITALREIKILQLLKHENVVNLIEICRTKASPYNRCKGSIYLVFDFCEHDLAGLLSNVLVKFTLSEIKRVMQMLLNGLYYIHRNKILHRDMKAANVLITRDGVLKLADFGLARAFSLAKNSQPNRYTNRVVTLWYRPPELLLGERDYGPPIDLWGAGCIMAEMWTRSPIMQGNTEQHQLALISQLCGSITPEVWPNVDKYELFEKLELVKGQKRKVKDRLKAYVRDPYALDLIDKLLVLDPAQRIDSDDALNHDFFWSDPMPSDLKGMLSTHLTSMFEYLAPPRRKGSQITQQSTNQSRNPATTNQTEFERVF
UniProt Q9WTM5: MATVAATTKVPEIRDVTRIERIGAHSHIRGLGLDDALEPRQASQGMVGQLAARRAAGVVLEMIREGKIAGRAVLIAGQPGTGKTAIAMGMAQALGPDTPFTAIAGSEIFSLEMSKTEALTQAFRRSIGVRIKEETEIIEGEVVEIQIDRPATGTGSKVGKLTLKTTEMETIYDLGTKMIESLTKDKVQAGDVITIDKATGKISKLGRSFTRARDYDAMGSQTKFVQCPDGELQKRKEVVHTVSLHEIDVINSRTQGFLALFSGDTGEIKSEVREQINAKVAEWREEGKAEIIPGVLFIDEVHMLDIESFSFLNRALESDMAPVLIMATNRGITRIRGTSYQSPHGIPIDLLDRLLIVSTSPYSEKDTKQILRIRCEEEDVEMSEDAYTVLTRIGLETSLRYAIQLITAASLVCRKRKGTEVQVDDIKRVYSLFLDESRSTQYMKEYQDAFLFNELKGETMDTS
UniProt P05627: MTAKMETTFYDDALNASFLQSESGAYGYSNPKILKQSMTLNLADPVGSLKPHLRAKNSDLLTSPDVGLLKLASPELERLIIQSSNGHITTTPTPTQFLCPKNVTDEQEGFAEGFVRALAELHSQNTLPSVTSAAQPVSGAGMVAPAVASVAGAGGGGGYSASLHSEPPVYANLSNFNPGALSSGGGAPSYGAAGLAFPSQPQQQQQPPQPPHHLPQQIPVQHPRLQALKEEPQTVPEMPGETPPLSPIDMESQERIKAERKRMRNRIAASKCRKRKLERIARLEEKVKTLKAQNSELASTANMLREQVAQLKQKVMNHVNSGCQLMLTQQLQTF

T1: Ambra1 (Activating Molecule in Beclin1-Regulated Autophagy) (mouse (endogenous in SCC cells)) (UniProt A2AH22)
T1 sequence: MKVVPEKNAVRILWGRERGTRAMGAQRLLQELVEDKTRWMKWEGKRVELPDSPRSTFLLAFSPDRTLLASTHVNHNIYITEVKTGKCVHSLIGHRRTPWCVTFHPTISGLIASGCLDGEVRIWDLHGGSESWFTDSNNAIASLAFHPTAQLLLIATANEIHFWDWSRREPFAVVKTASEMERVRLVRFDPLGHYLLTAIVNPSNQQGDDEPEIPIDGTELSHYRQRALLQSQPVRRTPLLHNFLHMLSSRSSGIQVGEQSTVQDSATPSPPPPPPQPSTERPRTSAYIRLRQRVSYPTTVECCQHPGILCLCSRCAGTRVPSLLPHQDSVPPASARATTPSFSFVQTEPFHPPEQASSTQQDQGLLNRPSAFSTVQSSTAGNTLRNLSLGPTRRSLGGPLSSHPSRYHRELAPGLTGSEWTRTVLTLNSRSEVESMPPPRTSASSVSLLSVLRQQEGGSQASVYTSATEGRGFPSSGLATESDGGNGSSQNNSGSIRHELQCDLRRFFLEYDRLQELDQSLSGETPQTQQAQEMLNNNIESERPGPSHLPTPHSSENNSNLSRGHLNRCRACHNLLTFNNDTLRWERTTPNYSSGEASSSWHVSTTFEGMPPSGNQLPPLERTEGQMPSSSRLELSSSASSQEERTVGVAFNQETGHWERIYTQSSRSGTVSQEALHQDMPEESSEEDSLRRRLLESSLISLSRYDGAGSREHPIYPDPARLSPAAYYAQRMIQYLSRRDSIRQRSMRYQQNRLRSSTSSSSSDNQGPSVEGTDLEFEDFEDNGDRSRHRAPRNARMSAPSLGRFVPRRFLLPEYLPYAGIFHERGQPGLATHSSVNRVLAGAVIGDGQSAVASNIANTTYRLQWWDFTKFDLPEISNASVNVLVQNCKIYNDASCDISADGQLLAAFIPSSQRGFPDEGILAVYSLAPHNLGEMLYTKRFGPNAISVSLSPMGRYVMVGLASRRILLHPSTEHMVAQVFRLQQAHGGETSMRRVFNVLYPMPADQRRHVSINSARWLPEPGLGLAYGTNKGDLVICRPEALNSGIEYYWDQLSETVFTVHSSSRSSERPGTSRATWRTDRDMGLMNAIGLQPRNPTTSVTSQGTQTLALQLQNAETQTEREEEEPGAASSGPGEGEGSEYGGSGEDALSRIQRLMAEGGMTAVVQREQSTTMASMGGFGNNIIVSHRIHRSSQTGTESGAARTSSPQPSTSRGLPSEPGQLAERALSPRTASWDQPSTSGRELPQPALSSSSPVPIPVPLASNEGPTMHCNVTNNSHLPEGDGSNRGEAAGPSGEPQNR

B1: Atf7 (protein, UniProt Q8R0S1 1-413)
chain: MGDDRPFVCSAPGCGQRFTNEDHLAVHKHKHEMTLKFGPARTDSVIIADQTPTPTRFLKNCEEVGLFNELASSFEHEFKKASDDDEKKGAAGPLDMSLPSTPDIKIKEEEPVEVDSSPPDSPASSPCSPPLKEKEVTTKPVVISTPTPTIVRPGSLPLHLGYDPLHPTLPSPTSVITQAPPSNRQIGSPTGSLPLVMHLANGQTMPMLPGPPVQMPSVISLARPVSMVPNIPGIPGPPVNNSGSISPSGHPMPSEAKMRLKATLTHQVSSINGGCGMVVGTASTMVTARPEQNQILIQHPDAPSPAQPQVSPAQPTPSTGGRRRRTVDEDPDERRQRFLERNRAAASRCRQKRKLWVSSLEKKAEELTSQNIQLSNEVTLLRNEVAQLKQLLLAHKDCPVTALQKKTQGYLGK
B2: Cdk8 (protein, UniProt Q8R3L8 1-464)
chain: MDYDFKVKLSSERERVEDLFEYEGCKVGRGTYGHVYKAKRKDGKDDKDYALKQIEGTGISMSACREIALLRELKHPNVISLLKVFLSHADRKVWLLFDYAEHDLWHIIKFHRASKANKKPVQLPRGMVKSLLYQILDGIHYLHANWVLHRDLKPANILVMGEGPERGRVKIADMGFARLFNSPLKPLADLDPVVVTFWYRAPELLLGARHYTKAIDIWAIGCIFAELLTSEPIFHCRQEDIKTSNPYHHDQLDRIFNVMGFPADKDWEDIKKMPEHSTLMKDFRRNTYTNCSLIKYMEKHKVKPDSKAFHLLQKLLTMDPIKRITSEQAMQDPYFLEDPLPTSDVFAGCQIPYPKREFLTEEEPDEKGDKKTQQQQQGNNHTNGTGHPGNQDSGHAQGPPLKKVRVVPPTTTSGGLIMTSDYQRSNPHAAYPNPGPSTSQPQSSMGYSATSQQPPQYSHQTHRY
B3: Atf2 (protein, UniProt P16951 1-487)
chain: MSDDKPFLCTAPGCGQRFTNEDHLAVHKHKHEMTLKFGPARNDSVIVADQTPTPTRFLKNCEEVGLFNELASPFENEFKKASEDDIKKMPLDLSPLATPIIRSKIEEPSVVETTHQDSPLPHPESTTSDEKEVPLAQTAQPTSAIVRPASLQVPNVLLTSSDSSVIIQQAVPSPTSSTVITQAPSSNRPIVPVPGPFPLLLHLPNGQTMPVAIPASITSSNVHVPAAVPLVRPVTMVPSVPGIPGPSSPQPVQSEAKMRLKAALTQQHPPVTNGDTVKGHGSGLVRTQSEESRPQSLQQPATSTTETPASPAHTTPQTQNTSGRRRRAANEDPDEKRRKFLERNRAAASRCRQKRKVWVQSLEKKAEDLSSLNGQLQSEVTLLRNEVAQLKQLLLAHKDCPVTAMQKKSGYHTADKDDSSEDLSVPSSPHTEAIQHSSVSTSNGVSSTSKAEAVATSVLTQMADQSTEPALSQIVMAPPSQAQPSGS
B4: Nup153 (protein, UniProt E9Q3G8 1-1462)
chain: MASEAGGIGGGGGGGKIRTRRCHQGPVKPYQQGRPQHQGILSRVTESVKNIVPGWLQRYFNKSENACSCSPDADEVPPWPENREDEHAIYADENTNTDDGRITPDPAGSNTEEPSTTSTASNYPDVLTRPSLHRSHLNFSVLESPALHCQPSTSSAFPIGSSGFSLVKEIKDSTSQHDDDNISTTSGFSSRASEKDIAVSKNTSLPPLWSPEAERSHSLSQHTAISSKKPAFNLSAFGTLSTSLGNSSILKTSQLGDSPFYPGKTTYGGAAAAVRQNKVRSTPYQAPVRRQMKAKQLNAQSYGVTSSTARRILQSLEKMSSPLADAKRIPSAVSSPLNSPLDRSGIDNTVFQAKKEKVDSQYPPVQRLMTPKPVSIATNRTVYFKPSLTPSGDLRKTNQRIDKKNSTVDEKSISRQNREQESGFSYPNFSIPAANGLSSGVGGGGGKMRRERTHFVAPKPPENEEVEAPLLPQISLPISSSSLPTFSFSSPVTSASPSPVSSSQPLPNKVQMTSLGSTGSPVFTFSSPIVKSTQAAVLPPASIGFTFSVPLAKTEFSGSNSSSETVLSSSAQDITAVNSSSYKKRSAPCEDPFTPAKILREGSVLDILKTPGFASPKVDSPALQPTTTSSIVYTRPAISTFSSSGIEYGESLKAGSSWQCDTCLLQNKVTDNKCIACQAAKLPLKETAKQTGTGTPSKSDKPASTSGTGFGDKFKPAIGTWDCDTCLVQNKPEAVKCVACETPKPGTGVKRALTLTVASESPVTASSSTTVTTGTLGFGDKFKRPVGSWECPVCCVCNKAEDNRCVSCTSEKPGLVSASSSSPAPVSLSSGGCLGLDKFKKPEGSWDCEVCLVQNKADSAKCIACESAKPGTKSEFKGFGTSSSLNPAPSAFKFGIPSSSSGLSQTLTSTGNFKFGDQGGFKLGTSSDSGSTNTMNTNFKFSKPTGDFKFGVLSDSKPEEVKNDNKNDNFQFGSSSGLTNPASSAPFQFGVSTLGQQEKKEELPKSSPAGFSFGAGVNNPPNAAIDTTATSENKSGFNFGTLDTKSVSVTPFTYKTTEAKKEDAPATKGGFTFGKVGSSSLPSSSMFVLGRTEEKQQEPVTSTSLVFGKKADSEEPKCQPVFSFGNSEQTKDESSKPTFSFSVAKPSGKESEQLAKATFAFGNQTNTTTDQGAAKPVFSFLNSSSSSSSAPATSSSGGIFGSSTSSSNPPVAAFVFGQASNPVSSSAFGNAAESSTSQSLLFPQESEPATTSSTAPAASPFVFGTGASSNSVSSGFTFGATTTSSSSGSSFVFGTGHSAPSASPAFGANQTPTFGQSQGASQPNPPSFGSISSSTALFSAGSQPVPPPIFGTVSSSSQPPVFGQQPSQSAFGSGTANASSVFQFGSSTTNFNFTNNNPSGVFTFGASPSTPAASAQPSGSGVFSFSQSPASFTVGSNGKNMFSSSGTSVSGRKIKTAVRRKK

biological target: T1, Ambra1 (Activating Molecule in Beclin1-Regulated Autophagy) (mouse (endogenous in SCC cells)); experiment: affinity purification with mass spectrometry

binding, binds:
Ruvbl1 (from UniProt P60122 1-456)
Akap8 (A kinase anchor protein 8) (from UniProt Q9DBR0 1-687)
Fosl (mouse (endogenous in SCC cells))
SMARCC1 (from UniProt P97496 1-1104)
SMARCA4 (Brg1) (from UniProt Q3TKT4 1-1613)
Cdk9 (from UniProt Q99J95 1-372)
Ruvbl2 (from UniProt Q9WTM5 1-463)
c-Jun (from UniProt P05627 1-334)

biological target: T1, Ambra1 (Activating Molecule in Beclin1-Regulated Autophagy) (mouse (endogenous in SCC cells)); experiment: affinity purification with mass spectrometry; remark: another data set of the same source

binding, binds:
B1
B2
B3
B4
